Data published in paper doi:10.1101/2023.07.11.548599.
Like-named read-outs stand apart in the source and are kept apart here. Results are given in words; binding and its absence hold for the method and conditions named. In cells and extracts the contact can be indirect. Here binding means that the protein was enriched with, or labelled near, the bait; the list need not be complete. For part of these data: Where a sequence is shown, tags or fusion partners need not be part of it. Blank lines part the entries; values can stand above or below the molecule they belong to.

Sequences of proteins named here, by UniProt entry; tags and fusion partners are left off. A change or cut given only in a name is not applied to a line headed by its entry.
UniProt A1ZBF8: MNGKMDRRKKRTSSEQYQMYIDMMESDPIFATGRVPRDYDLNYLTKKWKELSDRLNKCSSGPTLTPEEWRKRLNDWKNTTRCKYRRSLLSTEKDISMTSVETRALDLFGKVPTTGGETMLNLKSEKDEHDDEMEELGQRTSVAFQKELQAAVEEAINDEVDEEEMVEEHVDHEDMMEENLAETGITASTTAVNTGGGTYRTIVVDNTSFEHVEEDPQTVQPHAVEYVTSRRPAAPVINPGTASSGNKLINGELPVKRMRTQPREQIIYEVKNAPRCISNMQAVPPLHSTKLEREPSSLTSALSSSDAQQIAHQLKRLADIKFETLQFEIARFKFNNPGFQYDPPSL
UniProt Q9VCH7: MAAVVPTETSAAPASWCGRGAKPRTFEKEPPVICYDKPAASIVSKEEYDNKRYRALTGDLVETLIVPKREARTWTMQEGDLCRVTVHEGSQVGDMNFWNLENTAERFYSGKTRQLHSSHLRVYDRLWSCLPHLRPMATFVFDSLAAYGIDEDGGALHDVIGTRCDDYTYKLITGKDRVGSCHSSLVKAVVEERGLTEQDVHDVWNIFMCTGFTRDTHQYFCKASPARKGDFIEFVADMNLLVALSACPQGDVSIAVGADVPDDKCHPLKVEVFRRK
UniProt Q9VGK3: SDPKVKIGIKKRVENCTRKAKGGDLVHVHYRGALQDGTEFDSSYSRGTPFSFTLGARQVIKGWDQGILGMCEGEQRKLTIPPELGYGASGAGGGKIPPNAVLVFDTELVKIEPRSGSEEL

Tests used:
Assay in all cases: affinity purification with mass spectrometry
[1] = biological target: GFP-Prod (D. melanogaster) (UniProt A1ZBF8)
GFP-D1 (D. melanogaster) [2] = biological target: T1, GFP-D1 (D. melanogaster) (UniProt P22058)
T1 sequence: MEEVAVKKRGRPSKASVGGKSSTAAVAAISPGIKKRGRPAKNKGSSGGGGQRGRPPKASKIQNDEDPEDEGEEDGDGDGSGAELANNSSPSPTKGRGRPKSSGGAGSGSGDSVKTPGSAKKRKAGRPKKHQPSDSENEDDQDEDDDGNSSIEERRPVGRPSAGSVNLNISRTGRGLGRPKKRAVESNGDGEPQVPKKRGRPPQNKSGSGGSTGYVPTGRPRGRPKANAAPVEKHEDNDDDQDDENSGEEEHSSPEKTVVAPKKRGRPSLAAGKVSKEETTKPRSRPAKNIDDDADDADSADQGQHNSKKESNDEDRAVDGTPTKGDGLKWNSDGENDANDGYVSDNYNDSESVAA

[3] = biological target: T2, GFP-Piwi (D. melanogaster) (UniProt Q9VKM1)
T2 sequence: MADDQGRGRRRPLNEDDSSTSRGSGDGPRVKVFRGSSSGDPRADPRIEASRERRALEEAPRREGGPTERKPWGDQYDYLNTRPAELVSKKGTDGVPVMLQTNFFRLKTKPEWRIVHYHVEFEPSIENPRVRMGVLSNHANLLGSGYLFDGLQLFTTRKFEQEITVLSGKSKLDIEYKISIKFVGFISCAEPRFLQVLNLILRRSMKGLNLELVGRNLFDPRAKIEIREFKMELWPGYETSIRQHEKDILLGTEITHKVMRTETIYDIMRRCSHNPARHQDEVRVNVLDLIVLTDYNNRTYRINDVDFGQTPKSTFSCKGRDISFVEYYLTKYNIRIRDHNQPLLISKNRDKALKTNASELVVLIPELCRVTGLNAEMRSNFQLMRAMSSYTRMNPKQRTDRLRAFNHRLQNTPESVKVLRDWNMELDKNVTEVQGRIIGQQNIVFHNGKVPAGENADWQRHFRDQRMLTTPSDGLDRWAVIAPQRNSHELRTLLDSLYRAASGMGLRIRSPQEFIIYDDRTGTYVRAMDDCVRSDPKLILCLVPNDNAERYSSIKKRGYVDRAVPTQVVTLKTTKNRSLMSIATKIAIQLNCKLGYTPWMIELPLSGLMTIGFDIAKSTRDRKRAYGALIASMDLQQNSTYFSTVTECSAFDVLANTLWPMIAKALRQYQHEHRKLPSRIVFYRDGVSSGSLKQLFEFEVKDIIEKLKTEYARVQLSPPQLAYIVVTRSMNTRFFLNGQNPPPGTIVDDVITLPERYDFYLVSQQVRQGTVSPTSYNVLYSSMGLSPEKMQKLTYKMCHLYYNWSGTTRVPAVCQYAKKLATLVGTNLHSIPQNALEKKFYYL

[4] = biological target: GFP-Prod (D. melanogaster) (UniProt A1ZBF8); remark: listed apart in the source
GFP-D1 (D. melanogaster) [5] = biological target: T1, GFP-D1 (D. melanogaster); remark: listed apart in the source

Molecule: CG10208 (from UniProt Q9VCH7)
binding [1]: binds
binding (GFP-D1 (D. melanogaster) [2]): binds
binding [3]: binds

Molecule: CG14715 (from UniProt Q9VGK3)
binding [1]: binds
binding (GFP-D1 (D. melanogaster) [2]): binds
binding [3]: binds

Molecule: Female independent of transformer (Fit) (D. melanogaster (endogenous in embryos))
binding (GFP-D1 (D. melanogaster) [2]): binds
binding [3]: binds

B2: Maelstrom (Mael) (protein, UniProt Q9VNS0 1-459)
chain: MAPKKHSGFMMFVNEWRNRNAEGRRMTLAQAVSHCGTIWEKMNTQQRGPYNSGGKDANVAQRAKRESSNGHGQVDKAQREATESLMDMKRTIERLVLNAKMSHDLENAKFVFVAFNYFTKALTTDVYVPAEFAACEYSLKEGIRSIYSTMIDPGQIIFGQGSDALLHSSTTHDLPLPPNALGEKNMTKLYRNIVDYLSKCQGKGKTLVVFTPAENITMVKSCFRYLECDDDFRDGGEKIQVFDIQYLLFILKKEVMNVADLNDEKINKFATDAFFKKDFFEFTAGIACQYHEDNDRTKYCTQSMVTRWAYTFTDFMCGDLAITVQPGKHIPAQTKPNYLIISSYASSLDHESSFDSFYSLPGSGVKKESQPEACSLSSSRLSVASSSYKPIDHTSFAANLNEVSEFPSLGMRNSSKHHGIAASAQREWNARNLPTHSRLIRKVSDNDFSVNGADGKLKK
binding [1]: binds
binding (GFP-D1 (D. melanogaster) [2]): binds

B3: chrac-16 (protein, UniProt Q9V452 1-140)
chain: MGEPRSQPPVERPPTAETFLPLSRVRTIMKSSMDTGLITNEVLFLMTKCTELFVRHLAGAAYTEEFGQRPGEALKYEHLSQVVNKNKNLEFLLQIVPQKIRVHQFQEMLRLNRSAGSDDDDDDDDDDDEEESESESESDE
binding [1]: binds
binding (GFP-D1 (D. melanogaster) [2]): binds

More lines, now with the values ahead:

binding (GFP-D1 (D. melanogaster) [2]): binds
binding [3]: binds
Molecule: Ugt35D1 (D. melanogaster (endogenous in embryos))

binding [1]: binds
binding (GFP-D1 (D. melanogaster) [2]): binds
binding [4]: binds
binding (GFP-D1 (D. melanogaster) [5]): binds
B1: CG5504 (protein, UniProt Q27237 63-520)
chain: AKDYYATLGVAKNANGKDIKKAYYQLAKKYHPDTNKEDPDAGRKFQEVSEAYEVLSDEQKRREYDTYGQTAENIGRQGGGFPGGGAGGFGPEGFSQSWQFRSSIDPEELFRKIFGEGNFRTNSFDDFADSKFGFGQAQEMVMDLTFAQAARGVNKDVNVNVVDQCPKCAGTKCEPGTKPGRCQYCNGTGFETVSTGPFVMRSTCRYCQGTRQHIKYPCSECEGKGRTVQRRKVTVPVPAGIENGQTVRMQVGSKELFVTFRVERSDYFRREGADVHTDAAISLAQAVLGGTVRVQGVYEDQWINVEPGTSSHHKIMLRGKGLKRVNAHGHGDHYVHVKITVPSAKKLDKKRLALIEAYAELEEDTPGQIHGIANRKDGSKQATAGASEEPGAGAAAKASAAAAGSGASKPGPGAEKSEGKDQWTDNEKTKAKEGGGSGSGQGDGGGGGFISKIKSMFN

binding [1]: binds
binding (GFP-D1 (D. melanogaster) [2]): binds
B4: Fancd2 (protein, UniProt Q8MYL1 1-1478)
chain: MYKQFKKRSKKPLNTIDENATIKVPRLAETTTNISVESSSGGSEENIPASQEHTQRFLSQHSVILAATLGRTQSSSRNIATLSRQPNNFFELVLVRAGVQLDQGDSLILACDHVPIVSKLREIFTSASSYTDKMETFKTGLNAAMAPGSKLVQKLLTGCTVDAAGEEQIYQSQNSMFMNFLMIDFMRDACVEVLLNKIEEVAKSDRVIMGKAAIPLPLLPLMLTQLRYLTASHKVEIYSRIEVIFNRATESAKLDIIANAELILDASMHDEFVELLNINYSSTEDLFHMTTVQTLGNLSLSDRTQAKLRVRILDFATSGQCSDAILPHLIRLLLNVLKIDTDDSVRDLIGSLRGIFNWRHTNETEKISASEDSKKSQLELFGFLELGLIRSKKFYQACQRSSASVPAAEFTSFDMILLLLLIHVNEDNSLYIENILRRRIKLEHITVSILEEIRQHYRHILEQHITTLMNILHDFMREKNRIVSDFAKSSYSILFKIFNSIQKNILKKLLELTCDKSSPHLTTMALELLRELQRKSAKDVQNCATLLIPMLDRISDLSLTQTRVAMDLLCHVAFPDPNLSPCLQLQEQVDMVVKKQLINSIDNIKKQGIIGCVQLIDAMARIANNGVDRDEFIASVENVDSLPDGRGKMAANLIIRTEASIGNSTESLALFFEELATVFNQRNEGTSGCELDNQFIAWACDLVTFRFQASFVTENVPETLKGIKLEYQLNINELDDTDANTESDVLNIGINISKLVLSPKVKACDSIYVLAPLFNYVRVLYKHRHQDSLESINALLGCAIVLPSFFEDDNYVSVFENFEAEQQKDILSIYFHTVNWMRVSISAFASQRDPPTRRRVLSRLGELIRIEQRMKPLLARAPVDFVAPPYQFLTNVKLSNQNQKRPGPKPAAKLNATLPEPDLTGNQPSIADFTIKVGQCKTVKTKTDFEQMYGPRERYRPMEVEIIMLLVEQKFVLNHQLEEEQMGEFLGLLELRFLLEDVVQKLEAAVLRHHDSYDADSFRPHLAKPEDFICDLLPCLHEVNNHLITLGEAIDNQLTEVSHVYSNLDLFKDQFCYIKSCFGLCVRLFALYFAWSEWSDKSQEQLLHKSLLKLQPKTQWKRLEKQSVPQLANLTFQYFLKYEKSVLNLSTAVHLHRLLCNLLKLGSLQSDASQPRFQQAEDLRILCGTLLRRKWFHYSGTLDKGGQCNIYLDELVKGFLKKSNAKSQTELLTELVKQCSILNTKDKALTSFPNFKKANFPLLFRGLCEVLIHSLSGQVSVDSRGDKLKLWESAVDLLNGLLSIVQQVEQPRNFGLFLKHSLLFLKLLLQHGMSALESIVREDPERLTRFLHELQKVTRFLHQLCCHSKSIKNTAIISYIPSLRETIETLVFRVKALLAANNCHSAFHMGNMINRDLHGDSIITPRSSFAGEENSDDELPADDTSVDETVLGDDMGITAVSVSTRPSDGSRRSKSSSRSKCF

binding [1]: binds
B5: Piwi (P-element induced wimpy testes) (protein, UniProt Q9VKM1 1-843)
chain: T2 sequence
